For one molecule, binding results are on record in PMC4466232.

For the assay, the target named is MVM capsid protein VP2 (stably expressed in mouse fibroblasts, MF-VPs) (Minute Virus of Mice, prototype strain (MVMp)). Put plainly: cross-linking; clarified cell homogenates in HNEM buffer (50 mM Hepes pH 8.0, 150 mM NaCl, 2 mM MgCl2, 1 mM EDTA) cross-linked with 10 mM dimethyl suberimidate (DMS), 10 min at 20°C; 5% SDS-PAGE and Western blot with the α-VPs antibody; MF-VPs quiescent by serum starvation (G0) or 8 h after serum addition (S); HF-VPs at hours after release of density arrest (G1). On the technique in general: Immunoblotting shows a protein as a band on a membrane.

No constants are given. Whether binding was seen depends on the method and setting. Binding seen in cells or lysates may run through a third protein. A result given as binding can be weak or reduced; the word gives no strength.

B1: MVM capsid protein VP1 (stably expressed in mouse fibroblasts, MF-VPs) (protein, UniProt P03137 1-729)
chain: MAPPAKRAKRGWVPPGYKYLGPGNSLDQGEPTNPSDAAAKEHDEAYDQYIKSGKNPYLYFSAADQRFIDQTKDAKDWGGKVGHYFFRTKRAFAPKLATDSEPGTSGVSRAGKRTRPPAYIFINQARAKKKLTSSAAQQSSQTMSDGTSQPDSGNAVHSAARVERAADGPGGSGGGGSGGGGVGVSTGSYDNQTHYRFLGDGWVEITALATRLVHLNMPKSENYCRIRVHNTTDTSVKGNMAKDDAHEQIWTPWSLVDANAWGVWLQPSDWQYICNTMSQLNLVSLDQEIFNVVLKTVTEQDLGGQAIKIYNNDLTACMMVAVDSNNILPYTPAANSMETLGFYPWKPTIASPYRYYFCVDRDLSVTYENQEGTVEHNVMGTPKGMNSQFFTIENTQQITLLRTGDEFATGTYYFDTNSVKLTHTWQTNRQLGQPPLLSTFPEADTDAGTLTAQGSRHGTTQMGVNWVSEAIRTRPAQVGFCQPHNDFEASRAGPFAAPKVPADITQGVDKEANGSVRYSYGKQHGENWASHGPAPERYTWDETSFGSGRDTKDGFIQSAPLVVPPPLNGILTNANPIGTKNDIHFSNVFNSYGPLTAFSHPSPVYPQGQIWDKELDLEHKPRLHITAPFVCKNNAPGQMLVRLGPNLTDQYDPNGATLSRIVTYGTFFWKGKLTMRAKLRANTTWNPVYQVSAEDNGNSYMSVTKWLPTATGNMQSVPLITRPVARNTY
B1: the binding entry was “binds”.
